Reference: paper PMC3788743

Experiments:
[1] = target: T1, Flag-REEP1 (HSP), REEP1(Arg113X), HSP mutant form of REEP1 with a premature stop codon at Arg113 (mouse) (UniProt Q8BGH4); experiment: co-IP; HEK293A cells co-transfected with HA-α2 AR and Flag-REEP, 18 h; lysates in modified RIPA buffer (0.15 M NaCl, 1% NP40, 0.25% DOC, 50 mM HEPES pH 7.4, 1 mM EDTA); precipitated with M2 (anti-Flag) on Dynabeads Protein G overnight at 4°C; blot with anti-HA
T1 sequence: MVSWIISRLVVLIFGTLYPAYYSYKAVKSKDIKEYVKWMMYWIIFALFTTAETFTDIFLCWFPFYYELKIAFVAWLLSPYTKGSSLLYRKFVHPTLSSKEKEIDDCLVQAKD

[2] = target: HA-α2A adrenergic receptor; experiment: co-IP; reverse: same lysates precipitated with 16B12 (anti-HA, α2 AR co-IP) on Dynabeads Protein G overnight at 4°C; blot with M2 (anti-Flag)

B2: Flag-REEP6 (receptor expression enhancing protein 6, mouse, carboxyl terminus Flag epitope) (protein, UniProt Q9JM62-1 1-201)
chain: MDGLRQRFERFLEQKNVATEALGALEARTGVEKRYLAAGALALLGLYLLFGYGASLLCNVIGFVYPAYASVKAIESPSKEDDTVWLTYWVVYALFGLVEFFSDLLLFWFPFYYAGKCAFLLFCMTPGPWNGALLLYHRVIRPLFLKHHMALDSAASQLSGRALDLAAGITRDVLQALARGRALVTPASTSEPPAALELDPK
binding [2]: no binding

B3: Flag-REEP2 (receptor expression enhancing protein 2, mouse, carboxyl terminus Flag epitope) (protein, UniProt Q8VCD6 1-254)
chain: MVSWIISRLVVLIFGTLYPAYSSYKAVKTKNVKEYVKWMMYWIVFAFFTTAETLTDIILSWFPFYFELKIAFVIWLLSPYTKGSSVLYRKFVHPTLSNKEKEIDEYITQARDKSYETMMRVGKRGLNLAANAAVTAAAKGQGVLSEKLRSFSMQDLTLIRDEDALPLQGPDGRLQPGPVGLLDTIEDLGDEPALSLRSSTSQPDPRTETSEDDLGDKAPKRTKPIKKVPRAEPPASKTLKTRPKKKSSGGGDSA
binding [2]: no binding

The remaining lines, values ahead:

binding [1]: no binding
Molecule: HA-α2C adrenergic receptor

binding [2]: no binding
B1: Flag-REEP1 (receptor expression enhancing protein 1, mouse, carboxyl terminus Flag epitope) (protein, UniProt Q8BGH4 1-201)
chain: MVSWIISRLVVLIFGTLYPAYYSYKAVKSKDIKEYVKWMMYWIIFALFTTAETFTDIFLCWFPFYYELKIAFVAWLLSPYTKGSSLLYRKFVHPTLSSKEKEIDDCLVQAKDRSYDALVHFGKRGLNVAATAAVMAASKGQGALSERLRSFSMQDLTTIRGDGAPAPSGPPPPGTGRSSGKHSQPKMSRSASESAGSSGTA

No constants are given. Whether binding was seen depends on the method and setting. In cells and extracts the contact can be indirect. Tags and fused reporters may be left off the sequences shown. Each block holds one molecule with its values, some of them ahead of it.
